This passage reports binding results from patent US20080057055A1, “OLD-35 as an inflammatory agent” (priority 2004, published 2008).

The experiment addresses T1, NF-κB p50 subunit (human), P19838.
T1 chain: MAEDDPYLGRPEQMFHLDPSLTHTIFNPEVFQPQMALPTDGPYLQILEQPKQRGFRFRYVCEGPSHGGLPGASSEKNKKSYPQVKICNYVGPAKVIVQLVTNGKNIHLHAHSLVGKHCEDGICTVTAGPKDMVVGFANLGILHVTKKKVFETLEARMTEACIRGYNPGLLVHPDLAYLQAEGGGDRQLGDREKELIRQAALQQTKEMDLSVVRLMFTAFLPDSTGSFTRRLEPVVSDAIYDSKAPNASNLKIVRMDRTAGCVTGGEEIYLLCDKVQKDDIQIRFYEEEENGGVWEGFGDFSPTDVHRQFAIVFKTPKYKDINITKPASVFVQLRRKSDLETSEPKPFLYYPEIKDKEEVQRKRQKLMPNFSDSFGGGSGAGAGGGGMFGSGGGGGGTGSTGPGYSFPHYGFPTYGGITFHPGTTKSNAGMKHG
Put plainly: complex composition inferred from EMSA supershift. The following applies: remark: other sources report otherwise.

These are yes or no findings as the source states them, for the method shown. Some binding calls cover weakened binding; strength is not graded here.

B1: NF-κB p50 subunit (other, human, UniProt P19838 1-433, looked up)
chain: T1 chain
notes: also called NF-κB1 (p50/p105)
Regarding B1, the binding result is on record as “binds”.
